PubChem BioAssay AID1159584 – Peter MacCallum Cancer Centre – 2016
Screen: 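Genes that CDH1-null MCF10A cells selectively depend on to survive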 (primary screen). Cell system: human MCF10A breast epithelial cells, parental and CDH1-null. Reagent: siRNA against human genes. Detection: 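ATP luminescence (CellTiter-Glo) viability per line relative to mean mock wells over all plates, and the ratio of CDH1-null to parental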. Reading the numbers: CDH1-null / parental viability ratio: higher = CDH1-null cells survive relatively better than parental; CDH1-null viability vs mock: higher = more viable CDH1-null cells; parental viability vs mock: higher = more viable parental cells.
Shown is a random part of about 18,000 reagents tested. Reagent sequences are not shown. Not stated in the record: the amount of reagent, the time to read-out.

| gene | CDH1-null / parental viability ratio | CDH1-null viability vs mock (fraction of mock) | parental viability vs mock (fraction of mock) |
| --- | --- | --- | --- |
| RNF115 (ring finger protein 115) | 0.87 | 0.75 | 0.86 |
| CTBP2 (C-terminal binding protein 2) | 0.89 | 0.84 | 0.94 |
| IL4 (interleukin 4) | 0.77 | 0.76 | 0.99 |
| GJB5 (gap junction protein beta 5) | 0.96 | 0.96 | 1 |
| OR52E2 (olfactory receptor family 52 subfamily E member 2) | 1.09 | 0.97 | 0.89 |
| C3 (complement C3) | 1.05 | 0.97 | 0.92 |
| PFDN4 (prefoldin subunit 4) | 1.06 | 0.9 | 0.85 |
| TOLLIP (toll interacting protein) | 1.25 | 0.8 | 0.64 |
| PSMD3 (proteasome 26S subunit, non-ATPase 3) | 1.28 | 0.37 | 0.29 |
| LY6G6D (lymphocyte antigen 6 family member G6D) | 1.01 | 0.88 | 0.87 |
| RAG1 (recombination activating 1) | 0.96 | 0.72 | 0.75 |
| ACTL9 (actin like 9) | 0.9 | 0.38 | 0.42 |
| NDRG2 (NDRG family member 2) | 1 | 0.95 | 0.95 |
| ADH6 (alcohol dehydrogenase 6 (class V)) | 1.32 | 1.06 | 0.8 |
| MT1E (metallothionein 1E) | 0.74 | 0.64 | 0.86 |
| EPM2A (EPM2A glucan phosphatase, laforin) | 1.11 | 0.82 | 0.74 |
| ART4 (ADP-ribosyltransferase 4 (inactive) (Dombrock blood group)) | 0.91 | 0.88 | 0.97 |
| PGRMC2 (progesterone receptor membrane component 2) | 0.95 | 0.84 | 0.88 |
| LGALS2 (galectin 2) | 0.81 | 0.57 | 0.7 |
| NEU1 (neuraminidase 1) | 1.19 | 0.43 | 0.36 |
| SLC44A2 | 0.86 | 0.55 | 0.64 |
| HEXIM2 (HEXIM P-TEFb complex subunit 2) | 1.06 | 0.55 | 0.52 |
| IDO1 (indoleamine 2,3-dioxygenase 1) | 1.09 | 0.96 | 0.88 |
| CSF2RA (colony stimulating factor 2 receptor subunit alpha) | 0.82 | 0.8 | 0.98 |
| UBE2G1 (ubiquitin conjugating enzyme E2 G1) | 1.05 | 0.86 | 0.82 |
| TNFSF13 (TNF superfamily member 13) | 0.83 | 0.88 | 1.06 |
| SRGAP2 (SLIT-ROBO Rho GTPase activating protein 2) | 0.74 | 0.71 | 0.96 |
| RAB33A (RAB33A, member RAS oncogene family) | 1.04 | 0.81 | 0.78 |
| ISL1 (ISL LIM homeobox 1) | 0.83 | 0.55 | 0.66 |
| TEAD1 (TEA domain transcription factor 1) | 1.05 | 0.64 | 0.61 |
| TAF9B (TATA-box binding protein associated factor 9b) | 0.86 | 0.88 | 1.02 |
| AGA (aspartylglucosaminidase) | 0.85 | 0.7 | 0.82 |
| GASK1B (golgi associated kinase 1B) | 0.81 | 0.63 | 0.78 |
| DNAI2 (dynein axonemal intermediate chain 2) | 1.38 | 0.72 | 0.52 |
| DEFA1 (defensin alpha 1) | 0.72 | 0.46 | 0.64 |
| GFER (growth factor, augmenter of liver regeneration) | 1.02 | 0.56 | 0.55 |
| GIPC2 (GIPC PDZ domain containing family member 2) | 1.03 | 0.76 | 0.74 |
| KLF10 (KLF transcription factor 10) | 1.08 | 1.08 | 1 |
| CPSF4 (cleavage and polyadenylation specific factor 4) | 1.16 | 0.8 | 0.69 |
| SCGB1D1 (secretoglobin family 1D member 1) | 0.94 | 0.58 | 0.62 |
| CHRM4 (cholinergic receptor muscarinic 4) | 1.25 | 0.94 | 0.75 |
| RASAL2 (RAS protein activator like 2) | 1.1 | 0.78 | 0.71 |
| ANKRD11 (ankyrin repeat domain 11) | 1.14 | 1.05 | 0.92 |
| SPRING1 (SREBF pathway regulator in golgi 1) | 0.96 | 0.8 | 0.83 |
| SMYD1 (SET and MYND domain containing 1) | 0.89 | 0.7 | 0.79 |
| RSAD1 (radical S-adenosyl methionine domain containing 1) | 1.08 | 0.79 | 0.73 |
| MEAF6 (MYST/Esa1 associated factor 6) | 1.44 | 0.72 | 0.5 |
| NOL6 (nucleolar protein 6) | 1.47 | 0.66 | 0.45 |
| TMEM74 (transmembrane protein 74) | 1 | 0.77 | 0.77 |
| DESI2 (desumoylating isopeptidase 2) | 1.06 | 0.84 | 0.79 |
| UBE3C (ubiquitin protein ligase E3C) | 1.04 | 0.8 | 0.77 |
| PPFIA4 (PPFI scaffold protein A4) | 1.36 | 0.87 | 0.64 |
| HIPK3 (homeodomain interacting protein kinase 3) | 0.73 | 0.54 | 0.74 |
| ARHGEF11 (Rho guanine nucleotide exchange factor 11) | 0.83 | 0.73 | 0.88 |
| PHC3 (polyhomeotic homolog 3) | 1.58 | 0.6 | 0.38 |
| RFPL2 (ret finger protein like 2) | 1.02 | 0.97 | 0.95 |
| NCAPG (non-SMC condensin I complex subunit G) | 1.02 | 0.88 | 0.86 |
| ZNF624 (zinc finger protein 624) | 1.07 | 1.02 | 0.95 |
| ADRB1 (adrenoceptor beta 1) | 1.4 | 0.95 | 0.68 |
| HLA-A (major histocompatibility complex, class I, A) | 1.27 | 0.94 | 0.74 |
| ADAM9 (ADAM metallopeptidase domain 9) | 1.15 | 0.86 | 0.75 |
| SHOX2 (SHOX homeobox 2) | 0.65 | 0.52 | 0.8 |
| CNST (consortin, connexin sorting protein) | 0.96 | 0.73 | 0.76 |
| NR2E3 (nuclear receptor subfamily 2 group E member 3) | 0.9 | 0.88 | 0.98 |
| ZBTB47 (zinc finger and BTB domain containing 47) | 0.79 | 0.92 | 1.17 |
| PTPRC (protein tyrosine phosphatase receptor type C) | 1.33 | 0.92 | 0.69 |
| MIDEAS (mitotic deacetylase associated SANT domain protein) | 1.01 | 0.86 | 0.85 |
| GRK2 (G protein-coupled receptor kinase 2) | 0.77 | 0.65 | 0.84 |
| NLRP6 (NLR family pyrin domain containing 6) | 0.9 | 0.56 | 0.62 |
| VCPIP1 (valosin containing protein interacting protein 1) | 0.94 | 0.85 | 0.9 |
| LPP | 1.22 | 0.98 | 0.8 |
| DNAH7 (dynein axonemal heavy chain 7) | 0.86 | 0.79 | 0.92 |
| ITGA7 (integrin subunit alpha 7) | 0.86 | 0.85 | 0.99 |
| NECAB2 (N-terminal EF-hand calcium binding protein 2) | 1.23 | 0.86 | 0.7 |
| ANKS6 (ankyrin repeat and sterile alpha motif domain containing 6) | 0.94 | 0.73 | 0.78 |
| HAL (histidine ammonia-lyase) | 0.85 | 0.57 | 0.67 |
| DOCK8 (dedicator of cytokinesis 8) | 1.22 | 0.66 | 0.54 |
| DRICH1 (aspartate rich 1) | 0.85 | 0.68 | 0.8 |
| RXRG (retinoid X receptor gamma) | 1.08 | 0.77 | 0.71 |
| SLCO6A1 | 0.99 | 1.04 | 1.05 |
| HIRA (histone cell cycle regulator) | 1.35 | 0.81 | 0.6 |
| ZNF257 (zinc finger protein 257) | 0.95 | 0.7 | 0.74 |
| ACOXL (acyl-CoA oxidase like) | 0.76 | 0.55 | 0.72 |
| ZNF268 (zinc finger protein 268) | 1.15 | 1.02 | 0.89 |
| PER2 (period circadian regulator 2) | 0.73 | 0.66 | 0.9 |
| TP53I11 (tumor protein p53 inducible protein 11) | 0.82 | 0.7 | 0.85 |
| CNP (2',3'-cyclic nucleotide 3' phosphodiesterase) | 0.84 | 0.64 | 0.76 |
